Source: patent US7999069B2, “EphB receptor-binding peptides” (Sanford-Burnham Medical Research Institute, priority 2005, dated 2011)
At least one peptide structure holds a part that was inferred or is arguable (an end, a ring closure or a residue). For part of these data: For at least one compound, name, drawing or mass did not settle the structure. Blank lines part the entries; values can stand above or below the compound they belong to. No end group written: not given here.

How the values were obtained:
EphB4 [1] = target: T1, EphB4 (Homo sapiens, UniProt P54760); experiment: Inhibition of ephrin-B2 AP binding to immobilized EphB4 ectodomain; details: for IC50: read-out: Peptide IC50: concentration of peptide required to inhibit ephrin-B2 AP binding by 50%, biotinylated synthetic peptides except EWYM and FSPQ
T1 construct: panned on the ectodomains of EphB1, EphB2, or EphB4 fused to human Fc
T1 sequence (P54760 16-539 limits assumed): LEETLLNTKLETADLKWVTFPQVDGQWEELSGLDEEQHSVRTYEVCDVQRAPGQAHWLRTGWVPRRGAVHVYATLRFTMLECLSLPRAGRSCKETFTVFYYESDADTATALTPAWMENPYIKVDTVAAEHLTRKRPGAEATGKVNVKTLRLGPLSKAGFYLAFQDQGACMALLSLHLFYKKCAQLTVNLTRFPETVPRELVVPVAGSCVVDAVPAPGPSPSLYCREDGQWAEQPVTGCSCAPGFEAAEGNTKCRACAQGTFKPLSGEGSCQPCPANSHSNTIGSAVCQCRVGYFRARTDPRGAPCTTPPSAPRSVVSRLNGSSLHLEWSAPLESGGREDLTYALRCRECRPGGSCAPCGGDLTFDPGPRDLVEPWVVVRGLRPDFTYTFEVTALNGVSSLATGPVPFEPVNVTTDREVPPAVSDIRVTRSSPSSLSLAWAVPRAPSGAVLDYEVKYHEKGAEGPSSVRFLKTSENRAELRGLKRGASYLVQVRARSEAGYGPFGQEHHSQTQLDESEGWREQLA
Description: Peptides that bind to the same receptor region as the ephrins would be expected to inhibit Eph receptor-ephrin association, if they interact with sufficient affinity. A number of synthetic peptides were tested for their ability to inhibit binding of alkaline phosphatase-tagged ephrin-B2 (ephrin-B2-AP) to EphB receptors (FIG. 3). Most of the peptides were synthesized with a biotin tag and immobilized on streptavidin plates to verify their ability to capture the EphB ectodomains used for their isolation.
Ephrin-B2 AP binding to the indicated immobilized EphB receptor ectodomains was measured in the presence of the indicated peptides and detected by measuring alkaline phosphatase activity. […]. […] Wells coated with the different EphB ectodomains were incubated with ephrin-B2 AP and 50 μM of the indicated peptides. Ephrin-B2 AP binding in the presence of peptide was normalized to binding in the absence of peptide. All peptides were biotinylated except for FSPQ and EWYM. […] Therefore, IPWT was not used for further experiments. The EWYM, TWO, and FSPQ peptides were not synthesized with a biotin tag and therefore were tested directly for inhibition of ephrin-B2 binding. The EWLS, SNEW, and TNYL peptides were selective because they antagonized ephrin binding to only one EphB receptor (FIGS. 3B, D, and F).
The GP motif aligns with the GP motif of TNYL and the RAW motif aligns precisely next to the last amino acid of TNYL. […] For competition assays between peptides and ephrin-B2 alkaline phosphatase fusion protein (ephrin-B2 AP), the concentration of ephrin-B2 AP used was adjusted to obtain similar signals with different EphB receptors (0.135-1.45 OD min^−1ml^−1). Ephrin-B2 AP was co-incubated for 1 hr with different peptide concentrations in Ni-NTA wells coated with 1 μg/ml Eph receptor Fc. After several washes, the amount of ephrin-B2-AP bound was quantified using p-nitrophenylphosphate as a substrate. Alkaline phosphatase activity from wells without EphB Fc was subtracted as background. […] […]. In these experiments, the two peptides are not biotinylated. […] Ephrin-B2-AP binding in the presence of peptide was normalized to binding in the absence of peptide in (A) and (B). […] Endogenous EphB4 was immunoprecipitated from MCF7 breast cancer cells after stimulation with ephrin-B2 Fc, or Fc as a control, and probed by immunoblotting with anti-phosphotyrosine antibodies (PTyr). […] The filters were reprobed with EphB4 antibodies to confirm equal amounts of immunoprecipitated receptor.

EphB4 [2] = target: T2, EphB4 (Homo sapiens, UniProt P54760); experiment: Peptide pull-down of EphB4 from MCF7 or transfected 293T cells; type: binding
T2 construct: MCF-7 human breast cancer cells, which endogenously express EphB4; endogenous in cells; host or cells: MCF7
T2 sequence (P54760 16-987): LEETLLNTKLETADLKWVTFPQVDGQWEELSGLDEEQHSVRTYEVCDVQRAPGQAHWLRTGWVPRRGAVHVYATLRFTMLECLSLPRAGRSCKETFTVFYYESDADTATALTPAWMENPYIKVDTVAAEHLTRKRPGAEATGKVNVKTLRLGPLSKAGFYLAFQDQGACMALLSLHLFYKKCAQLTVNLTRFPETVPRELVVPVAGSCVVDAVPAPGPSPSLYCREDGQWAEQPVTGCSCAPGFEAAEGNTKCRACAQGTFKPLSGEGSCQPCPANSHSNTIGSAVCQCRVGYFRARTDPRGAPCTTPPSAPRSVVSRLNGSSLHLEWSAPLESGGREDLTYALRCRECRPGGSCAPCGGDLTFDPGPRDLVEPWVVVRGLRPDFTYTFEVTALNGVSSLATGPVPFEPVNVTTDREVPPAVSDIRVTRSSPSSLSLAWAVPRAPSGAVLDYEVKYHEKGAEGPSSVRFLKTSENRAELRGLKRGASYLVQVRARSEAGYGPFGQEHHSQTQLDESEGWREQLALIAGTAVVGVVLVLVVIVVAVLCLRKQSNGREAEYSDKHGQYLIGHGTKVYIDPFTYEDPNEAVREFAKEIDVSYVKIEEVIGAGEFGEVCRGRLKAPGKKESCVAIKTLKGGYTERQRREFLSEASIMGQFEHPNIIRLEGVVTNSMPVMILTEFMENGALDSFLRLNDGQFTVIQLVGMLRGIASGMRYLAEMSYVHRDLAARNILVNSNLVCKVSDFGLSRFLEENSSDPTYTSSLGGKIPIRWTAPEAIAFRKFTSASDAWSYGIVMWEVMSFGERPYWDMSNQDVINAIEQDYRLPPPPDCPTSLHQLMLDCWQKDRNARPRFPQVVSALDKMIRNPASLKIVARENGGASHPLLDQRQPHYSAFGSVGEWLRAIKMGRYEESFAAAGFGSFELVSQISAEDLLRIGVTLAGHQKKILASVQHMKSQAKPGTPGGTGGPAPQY
Description: The ability of the peptides to bind in a stable manner, which is important for both targeting and competitive inhibition, was tested in pull-down experiments. For peptide pull-down experiments, cells in 60 cm plates at 70% confluency or adult mouse brain tissue were solubilized in pull-down buffer (50 mM HEPES pH 7.5, 150 mM NaCl, 10% glycerol, 1% Triton-X100, 5 mM KCl and 1 mM EDTA). Three μg of biotinylated peptide were incubated for 45-90 min with 5 μl streptavidin agarose beads (Sigma), unbound peptide was washed away, and the beads were incubated with the cell lysates for 45-90 min. Proteins bound to the beads were separated by SDS-polyacrylamide gel electrophoresis and probed by immunoblotting with EphB1, EphB2, or EphB4 antibodies. The EphB1 antibody (Santa Cruz) was detected with a secondary anti-goat IgG peroxidase-conjugated antibody (BioRad Laboratories). The EphB2 and EphB4 antibodies were affinity-purified polyclonal antibodies to GST fusion proteins containing approximately 100 amino acids from the carboxy-terminal tails of the EphB2 or EphB4 receptors (Noren, N. K. et al. 2004 PNAS USA 101:5583-5588; Holash, J. A. & Pasquale, E. B. 1995 Devel Biol 172:683-693) and were detected with a secondary anti-rabbit IgG peroxidase-conjugated antibody (Amersham Biosciences). […]

Compound: CC(C)C[C@H](NC(=O)[C@H](C)NC(=O)[C@@H](N)CC(=O)O)C(=O)N[C@@H](CC(N)=O)C(=O)N[C@@H](CC(=O)O)C(=O)N[C@@H](Cc1c[nH]c2ccccc12)C(=O)N[C@@H](CC(C)C)C(=O)N[C@@H](CC(C)C)C(=O)N[C@@H](Cc1ccccc1)C(=O)N[C@@H](CCCNC(=N)N)C(=O)N1CCC[C@H]1C(=O)N[C@@H](Cc1c[nH]c2ccccc12)C(=O)O [Peptide 20]
IC50 (EphB4 [1]): > 100 µM

Compound: TYFDFQAWSIRA [Peptide 22]
IC50 (EphB4 [1]): > 50 µM

Now from value to compound:

IC50 (EphB4 [1]): > 500 µM
Compound: CC[C@H](C)[C@H](NC(=O)[C@@H](NC(=O)[C@@H]1CCCN1C(=O)[C@@H](N)CC(N)=O)C(C)C)C(=O)NCC(=O)N1CCC[C@H]1C(=O)N[C@H](C(=O)N[C@@H](CCC(N)=O)C(=O)N[C@@H](CCCNC(=N)N)C(=O)N[C@@H](C)C(=O)N[C@@H](Cc1c[nH]c2ccccc12)C(=O)N[C@H](C(=O)O)[C@@H](C)O)[C@@H](C)CC [Peptide 27]

Inhibition of ephrin-B2 AP binding to EphB4 (in words) (EphB4 [1]): inhibited ephrin binding to EphB4
Pull-down of EphB4, peptides used alone or together (EphB4 [2]): ineffective
Compound: DHNHNLYNPWRL [SEQ ID NO 21]

IC50 (EphB4 [1]): > 600 µM
Compound: FSPQGPAARNFA [Peptide 25]
